Laboratory results: paper PMC11292196 (Cancer Research, 2024)

System: KARPAS-422 cells
Assay: cells
Type: cell-based
Settings: Homo sapiens, KARPAS-422, read-out: IC50, KARPAS-422 cell proliferation

For CCN(c1cc(-c2ccc(CN3CCOCC3)cc2)cc(C(=O)NCc2c(C)cc(C)[nH]c2=O)c1C)C1CCOCC1 [Tazemetostat], which IC50 is on record?
The IC50 was 322 nM.
